Test results reported in patent US9155691B2, “Composition for reducing skin wrinkles including PDE5 inhibitor” (SK Chemicals Co., Ltd., priority 2010, dated 2015).
For at least one compound, name, drawing or mass did not settle the structure.

System: UVB-induced skin wrinkles of hairless mice
Assay: Wrinkle reduction in the skin of UVB-irradiated hairless mice (photographs)
Type: in vivo
Conditions: 0.05%, applied to skin twice, later once daily, n=6
Method: An examination was made as to whether the PDE5 inhibitors can substantially reduce skin wrinkles of animal models. Hairless mice, aged 7 weeks, were irradiated with UVB (290-320 nm, 312 nm) to induce wrinkles. The compound or the control was applied to each mouse and its influence on the induced wrinkles was evaluated. More specifically, the mice were irradiated with 60 mJ/cm^2 (1 minimal […] dose (MED)) for 3 days weekly during the first and second week after wrinkling, 120 mJ/cm^2 (2 MED) for 3 days during the third week after wrinkling, 180 mJ/cm^2 (3 MED) for 3 days during the fourth week after wrinkling, 240 mJ/cm^2 (4 MED) for 3 days weekly during the fifth to eighth week after wrinkling, and 240 mJ/cm^2 (4 MED) for 5 days weekly during the ninth to fifteenth week after wrinkling. During the sixteenth and seventeenth week after wrinkling, about 0.5 ml of squalene-OOH, an oxidation product of squalene by UV irradiation, was applied once using a brush to induce deeper wrinkles. […]

## CC1=C(/C=C/C(C)=C/C=C/C(C)=C/C(=O)O)C(C)(C)CCC1 [retinoic acid]
  Wrinkle reduction (skin photographs): Slight wrinkle reduction was observed
